Results are given in words; binding and its absence hold for the method and conditions named. In cells and extracts the contact can be indirect. Here binding means that the protein was enriched with, or labelled near, the bait; the list need not be complete.
B1: Apoptotic chromatin condensation inducer in the nucleus (protein, UniProt Q9UKV3 1-1341)
chain: MWRRKHPRTSGGTRGVLSGNRGVEYGSGRGHLGTFEGRWRKLPKMPEAVGTDPSTSRKMAELEEVTLDGKPLQALRVTDLKAALEQRGLAKSGQKSALVKRLKGALMLENLQKHSTPHAAFQPNSQIGEEMSQNSFIKQYLEKQQELLRQRLEREAREAAELEEASAESEDEMIHPEGVASLLPPDFQSSLERPELELSRHSPRKSSSISEEKGDSDDEKPRKGERRSSRVRQARAAKLSEGSQPAEEEEDQETPSRNLRVRADRNLKTEEEEEEEEEEEEDDEEEEGDDEGQKSREAPILKEFKEEGEEIPRVKPEEMMDERPKTRSQEQEVLERGGRFTRSQEEARKSHLARQQQEKEMKTTSPLEEEEREIKSSQGLKEKSKSPSPPRLTEDRKKASLVALPEQTASEEETPPPLLTKEASSPPPHPQLHSEEEIEPMEGPAPAVLIQLSPPNTDADTRELLVSQHTVQLVGGLSPLSSPSDTKAESPAEKVPEESVLPLVQKSTLADYSAQKDLEPESDRSAQPLPLKIEELALAKGITEECLKQPSLEQKEGRRASHTLLPSHRLKQSADSSSSRSSSSSSSSSRSRSRSPDSSGSRSHSPLRSKQRDVAQARTHANPRGRPKMGSRSTSESRSRSRSRSRSASSNSRKSLSPGVSRDSSTSYTETKDPSSGQEVATPPVPQLQVCEPKERTSTSSSSVQARRLSQPESAEKHVTQRLQPERGSPKKCEAEEAEPPAATQPQTSETQTSHLPESERIHHTVEEKEEVTMDTSENRPENDVPEPPMPIADQVSNDDRPEGSVEDEEKKESSLPKSFKRKISVVSATKGVPAGNSDTEGGQPGRKRRWGASTATTQKKPSISITTESLKSLIPDIKPLAGQEAVVDLHADDSRISEDETERNGDDGTHDKGLKICRTVTQVVPAEGQENGQREEEEEEKEPEAEPPVPPQVSVEVALPPPAEHEVKKVTLGDTLTRRSISQQKSGVSITIDDPVRTAQVPSPPRGKISNIVHISNLVRPFTLGQLKELLGRTGTLVEEAFWIDKIKSHCFVTYSTVEEAVATRTALHGVKWPQSNPKFLCADYAEQDELDYHRGLLVDRPSETKTEEQGIPRPLHPPPPPPVQPPQHPRAEQREQERAVREQWAEREREMERRERTRSEREWDRDKVREGPRSRSRSRDRRRKERAKSKEKKSEKKEKAQEEPPAKLLDDLFRKTKAAPCIYWLPLTDSQIVQKEAERAERAKEREKRRKEQEEEEQKEREKEAERERNRQLEREKRREHSRERDRERERERERDRGDRDRDRERDRERGRERDRRDTKRHSRSRSRSTPVRDRGGRR
B2: Zinc finger protein 622 (protein, UniProt Q969S3 1-477)
chain: MATYTCITCRVAFRDADMQRAHYKTDWHRYNLRRKVASMAPVTAEGFQERVRAQRAVAEEESKGSATYCTVCSKKFASFNAYENHLKSRRHVELEKKAVQAVNRKVEMMNEKNLEKGLGVDSVDKDAMNAAIQQAIKAQPSMSPKKAPPAPAKEARNVVAVGTGGRGTHDRDPSEKPPRLQWFEQQAKKLAKQQEEDSEEEEEDLDGDDWEDIDSDEELECEDTEAMDDVVEQDAEEEEAEEGPPLGAIPITDCLFCSHHSSSLMKNVAHMTKDHSFFIPDIEYLSDIKGLIKYLGEKVGVGKICLWCNEKGKSFYSTEAVQAHMNDKSHCKLFTDGDAALEFADFYDFRSSYPDHKEGEDPNKAEELPSEKNLEYDDETMELILPSGARVGHRSLMRYYKQRFGLSRAVAVAKNRKAVGRVLQQYRALGWTGSTGAALMRERDMQYVQRMKSKWMLKTGMKNNATKQMHFRVQVRF
B3: ATP-dependent RNA helicase DDX50 (protein, UniProt Q9BQ39 1-737)
chain: MPGKLLWGDIMELEAPLEESESQKKERQKSDRRKSRHHYDSDEKSETRENGVTDDLDAPKAKKSKMKEKLNGDTEEGFNRLSDEFSKSHKSRRKDLPNGDIDEYEKKSKRVSSLDTSTHKSSDNKLEETLTREQKEGAFSNFPISEETIKLLKGRGVTYLFPIQVKTFGPVYEGKDLIAQARTGTGKTFSFAIPLIERLQRNQETIKKSRSPKVLVLAPTRELANQVAKDFKDITRKLSVACFYGGTSYQSQINHIRNGIDILVGTPGRIKDHLQSGRLDLSKLRHVVLDEVDQMLDLGFAEQVEDIIHESYKTDSEDNPQTLLFSATCPQWVYKVAKKYMKSRYEQVDLVGKMTQKAATTVEHLAIQCHWSQRPAVIGDVLQVYSGSEGRAIIFCETKKNVTEMAMNPHIKQNAQCLHGDIAQSQREITLKGFREGSFKVLVATNVAARGLDIPEVDLVIQSSPPQDVESYIHRSGRTGRAGRTGICICFYQPRERGQLRYVEQKAGITFKRVGVPSTMDLVKSKSMDAIRSLASVSYAAVDFFRPSAQRLIEEKGAVDALAAALAHISGASSFEPRSLITSDKGFVTMTLESLEEIQDVSCAWKELNRKLSSNAVSQITRMCLLKGNMGVCFDVPTTESERLQAEWHDSDWILSVPAKLPEIEEYYDGNTSSNSRQRSGWSSGRSGRSGRSGGRSGGRSGRQSRQGSRSGSRQDGRRRSGNRNRSRSGGHKRSFD
B4: Putative ATP-dependent RNA helicase DHX30 (protein, UniProt Q7L2E3 1-1194)
chain: MFSLDSFRKDRAQHRQRQCKLPPPRLPPMCVNPTPGGTISRASRDLLKEFPQPKNLLNSVIGRALGISHAKDKLVYVHTNGPKKKKVTLHIKWPKSVEVEGYGSKKIDAERQAAAAACQLFKGWGLLGPRNELFDAAKYRVLADRFGSPADSWWRPEPTMPPTSWRQLNPESIRPGGPGGLSRSLGREEEEDEEEELEEGTIDVTDFLSMTQQDSHAPLRDSRGSSFEMTDDDSAIRALTQFPLPKNLLAKVIQIATSSSTAKNLMQFHTVGTKTKLSTLTLLWPCPMTFVAKGRRKAEAENKAAALACKKLKSLGLVDRNNEPLTHAMYNLASLRELGETQRRPCTIQVPEPILRKIETFLNHYPVESSWIAPELRLQSDDILPLGKDSGPLSDPITGKPYVPLLEAEEVRLSQSLLELWRRRGPVWQEAPQLPVDPHRDTILNAIEQHPVVVISGDTGCGKTTRIPQLLLERYVTEGRGARCNVIITQPRRISAVSVAQRVSHELGPSLRRNVGFQVRLESKPPSRGGALLFCTVGILLRKLQSNPSLEGVSHVIVDEVHERDVNTDFLLILLKGLQRLNPALRLVLMSATGDNERFSRYFGGCPVIKVPGFMYPVKEHYLEDILAKLGKHQYLHRHRHHESEDECALDLDLVTDLVLHIDARGEPGGILCFLPGWQEIKGVQQRLQEALGMHESKYLILPVHSNIPMMDQKAIFQQPPVGVRKIVLATNIAETSITINDIVHVVDSGLHKEERYDLKTKVSCLETVWVSRANVIQRRGRAGRCQSGFAYHLFPRSRLEKMVPFQVPEILRTPLENLVLQAKIHMPEKTAVEFLSKAVDSPNIKAVDEAVILLQEIGVLDQREYLTTLGQRLAHISTDPRLAKAIVLAAIFRCLHPLLVVVSCLTRDPFSSSLQNRAEVDKVKALLSHDSGSDHLAFVRAVAGWEEVLRWQDRSSRENYLEENLLYAPSLRFIHGLIKQFSENIYEAFLVGKPSDCTLASAQCNEYSEEEELVKGVLMAGLYPNLIQVRQGKVTRQGKFKPNSVTYRTKSGNILLHKSTINREATRLRSRWLTYFMAVKSNGSVFVRDSSQVHPLAVLLLTDGDVHIRDDGRRATISLSDSDLLRLEGDSRTVRLLKELRRALGRMVERSLRSELAALPPSVQEEHGQLLALLAELLRGPCGSFDVRKTADD
B5: Aldehyde dehydrogenase X, mitochondrial (protein, UniProt P30837 18-517)
chain: RYSSAAALPSPILNPDIPYNQLFINNEWQDAVSKKTFPTVNPTTGEVIGHVAEGDRADVDRAVKAAREAFRLGSPWRRMDASERGRLLNRLADLVERDRVYLASLETLDNGKPFQESYALDLDEVIKVYRYFAGWADKWHGKTIPMDGQHFCFTRHEPVGVCGQIIPWNFPLVMQGWKLAPALATGNTVVMKVAEQTPLSALYLASLIKEAGFPPGVVNIITGYGPTAGAAIAQHVDVDKVAFTGSTEVGHLIQKAAGDSNLKRVTLELGGKSPSIVLADADMEHAVEQCHEALFFNMGQCCCAGSRTFVEESIYNEFLERTVEKAKQRKVGNPFELDTQQGPQVDKEQFERVLGYIQLGQKEGAKLLCGGERFGERGFFIKPTVFGGVQDDMRIAKEEIFGPVQPLFKFKKIEEVVERANNTRYGLAAAVFTRDLDKAMYFTQALQAGTVWVNTYNIVTCHTPFGGFKESGNGRELGEDGLKAYTEVKTVTIKVPQKNS
B6: Erlin-2 (protein, UniProt O94905 1-339)
chain: MAQLGAVVAVASSFFCASLFSAVHKIEEGHIGVYYRGGALLTSTSGPGFHLMLPFITSYKSVQTTLQTDEVKNVPCGTSGGVMIYFDRIEVVNFLVPNAVYDIVKNYTADYDKALIFNKIHHELNQFCSVHTLQEVYIELFDQIDENLKLALQQDLTSMAPGLVIQAVRVTKPNIPEAIRRNYELMESEKTKLLIAAQKQKVVEKEAETERKKALIEAEKVAQVAEITYGQKVMEKETEKKISEIEDAAFLAREKAKADAECYTAMKIAEANKLKLTPEYLQLMKYKAIASNSKIYFGKDIPNMFMDSAGSVSKQFEGLADKLSFGLEDEPLETATKEN
B7: Exosome component 10 (protein, UniProt Q01780 1-885)
chain: MAPPSTREPRVLSATSATKSDGEMVLPGFPDADSFVKFALGSVVAVTKASGGLPQFGDEYDFYRSFPGFQAFCETQGDRLLQCMSRVMQYHGCRSNIKDRSKVTELEDKFDLLVDANDVILERVGILLDEASGVNKNQQPVLPAGLQVPKTVVSSWNRKAAEYGKKAKSETFRLLHAKNIIRPQLKFREKIDNSNTPFLPKIFIKPNAQKPLPQALSKERRERPQDRPEDLDVPPALADFIHQQRTQQVEQDMFAHPYQYELNHFTPADAVLQKPQPQLYRPIEETPCHFISSLDELVELNEKLLNCQEFAVDLEHHSYRSFLGLTCLMQISTRTEDFIIDTLELRSDMYILNESLTDPAIVKVFHGADSDIEWLQKDFGLYVVNMFDTHQAARLLNLGRHSLDHLLKLYCNVDSNKQYQLADWRIRPLPEEMLSYARDDTHYLLYIYDKMRLEMWERGNGQPVQLQVVWQRSRDICLKKFIKPIFTDESYLELYRKQKKHLNTQQLTAFQLLFAWRDKTARREDESYGYVLPNHMMLKIAEELPKEPQGIIACCNPVPPLVRQQINEMHLLIQQAREMPLLKSEVAAGVKKSGPLPSAERLENVLFGPHDCSHAPPDGYPIIPTSGSVPVQKQASLFPDEKEDNLLGTTCLIATAVITLFNEPSAEDSKKGPLTVAQKKAQNIMESFENPFRMFLPSLGHRAPVSQAAKFDPSTKIYEISNRWKLAQVQVQKDSKEAVKKKAAEQTAAREQAKEACKAAAEQAISVRQQVVLENAAKKRERATSDPRTTEQKQEKKRLKISKKPKDPEPPEKEFTPYDYSQSDFKAFAGNSKSKVSSQFDPNKQTPSGKKCIAAKKIKQSVGNKSMSFPTGKSDRGFRYNWPQR

Target: T1, E3 ubiquitin-protein ligase Midline-1 (UniProt O15344)
T1 sequence: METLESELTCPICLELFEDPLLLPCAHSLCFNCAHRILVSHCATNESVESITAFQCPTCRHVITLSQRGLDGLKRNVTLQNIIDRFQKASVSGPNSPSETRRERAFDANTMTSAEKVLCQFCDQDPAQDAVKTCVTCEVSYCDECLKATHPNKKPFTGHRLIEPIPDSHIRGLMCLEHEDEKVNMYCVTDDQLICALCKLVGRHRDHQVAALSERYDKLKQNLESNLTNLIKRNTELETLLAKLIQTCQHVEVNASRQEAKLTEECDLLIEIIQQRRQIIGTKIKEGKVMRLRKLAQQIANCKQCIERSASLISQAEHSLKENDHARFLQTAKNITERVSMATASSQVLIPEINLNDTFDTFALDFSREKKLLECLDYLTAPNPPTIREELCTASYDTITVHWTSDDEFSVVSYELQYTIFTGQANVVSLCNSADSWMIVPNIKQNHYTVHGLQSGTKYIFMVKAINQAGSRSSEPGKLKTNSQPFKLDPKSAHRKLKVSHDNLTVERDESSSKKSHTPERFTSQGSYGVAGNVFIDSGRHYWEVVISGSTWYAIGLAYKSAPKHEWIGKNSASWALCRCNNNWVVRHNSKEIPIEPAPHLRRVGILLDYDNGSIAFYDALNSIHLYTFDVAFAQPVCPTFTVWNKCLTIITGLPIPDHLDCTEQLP
Test: affinity purification with mass spectrometry; MID1-FLAG expressed in HEK293T, lysate in TKM buffer (20 mM Tris pH 7.4, 100 mM KCl, 5 mM MgCl2, 0.5% NP40, 1 mM DTT), anti-FLAG M1 agarose overnight at 4 °C, 6 washes; untransfected cells as control; Q-Exactive, MaxQuant, 1% FDR

Binder | binding
B1 | binds
B2 | binds
B3 | binds
B4 | binds
B5 | binds
B6 | binds
B7 | binds

From article PMC5841321
